Laboratory results: the supplement of paper PMC11006884
What follows is the remainder of the data, with few or none of the targets with a hit. This is a noisy data set. Only a part is listed here, and it is no random draw.

Protein sequences, listed by entry. Tags and fused reporters are not part of them. Lines headed by an entry give the natural chain unless they say otherwise; changes in a name come on top.
UniProt Q13325: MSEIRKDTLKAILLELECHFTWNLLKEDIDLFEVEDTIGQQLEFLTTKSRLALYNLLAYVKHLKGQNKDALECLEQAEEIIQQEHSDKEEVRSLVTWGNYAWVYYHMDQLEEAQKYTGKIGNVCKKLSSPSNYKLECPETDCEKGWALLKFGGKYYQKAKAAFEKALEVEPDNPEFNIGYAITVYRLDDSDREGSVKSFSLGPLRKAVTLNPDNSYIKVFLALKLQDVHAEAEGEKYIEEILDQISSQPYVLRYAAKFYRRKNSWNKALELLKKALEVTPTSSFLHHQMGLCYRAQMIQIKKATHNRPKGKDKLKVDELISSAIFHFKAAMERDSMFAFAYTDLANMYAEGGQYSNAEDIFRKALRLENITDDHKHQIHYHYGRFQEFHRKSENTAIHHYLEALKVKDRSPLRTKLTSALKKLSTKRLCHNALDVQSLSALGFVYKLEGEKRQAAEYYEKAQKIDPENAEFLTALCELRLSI
UniProt Q02790: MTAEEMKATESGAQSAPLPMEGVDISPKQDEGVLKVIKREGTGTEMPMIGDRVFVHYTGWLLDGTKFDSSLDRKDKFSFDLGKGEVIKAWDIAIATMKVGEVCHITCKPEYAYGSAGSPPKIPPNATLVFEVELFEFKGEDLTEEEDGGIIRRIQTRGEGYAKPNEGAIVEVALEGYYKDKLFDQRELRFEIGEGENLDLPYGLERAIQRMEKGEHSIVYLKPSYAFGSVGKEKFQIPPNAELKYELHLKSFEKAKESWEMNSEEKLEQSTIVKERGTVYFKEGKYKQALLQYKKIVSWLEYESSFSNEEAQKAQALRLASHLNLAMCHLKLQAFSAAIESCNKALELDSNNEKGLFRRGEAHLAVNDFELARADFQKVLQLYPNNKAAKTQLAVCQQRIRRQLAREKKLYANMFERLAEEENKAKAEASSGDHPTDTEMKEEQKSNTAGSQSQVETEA
UniProt Q09028, whole entry, looked up: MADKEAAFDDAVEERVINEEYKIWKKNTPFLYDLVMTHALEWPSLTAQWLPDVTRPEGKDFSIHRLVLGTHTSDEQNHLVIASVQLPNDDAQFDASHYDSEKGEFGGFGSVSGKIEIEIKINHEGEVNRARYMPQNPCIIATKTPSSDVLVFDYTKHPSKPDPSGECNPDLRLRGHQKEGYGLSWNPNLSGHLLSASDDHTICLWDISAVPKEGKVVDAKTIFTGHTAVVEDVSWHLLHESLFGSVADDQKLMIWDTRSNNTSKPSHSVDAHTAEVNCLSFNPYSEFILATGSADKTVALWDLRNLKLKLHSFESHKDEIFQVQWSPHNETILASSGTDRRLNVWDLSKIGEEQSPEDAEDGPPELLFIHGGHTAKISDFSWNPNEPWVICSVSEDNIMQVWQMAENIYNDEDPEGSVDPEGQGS
UniProt Q13151: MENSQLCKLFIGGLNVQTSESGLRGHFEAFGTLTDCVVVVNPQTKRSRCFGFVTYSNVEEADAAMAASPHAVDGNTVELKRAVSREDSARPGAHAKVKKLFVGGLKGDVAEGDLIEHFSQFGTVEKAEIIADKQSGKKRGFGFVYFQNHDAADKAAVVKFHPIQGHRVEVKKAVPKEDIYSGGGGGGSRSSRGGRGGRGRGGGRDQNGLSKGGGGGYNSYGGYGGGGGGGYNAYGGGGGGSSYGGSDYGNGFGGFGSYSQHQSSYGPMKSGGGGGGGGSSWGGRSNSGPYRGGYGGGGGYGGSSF
UniProt Q12769: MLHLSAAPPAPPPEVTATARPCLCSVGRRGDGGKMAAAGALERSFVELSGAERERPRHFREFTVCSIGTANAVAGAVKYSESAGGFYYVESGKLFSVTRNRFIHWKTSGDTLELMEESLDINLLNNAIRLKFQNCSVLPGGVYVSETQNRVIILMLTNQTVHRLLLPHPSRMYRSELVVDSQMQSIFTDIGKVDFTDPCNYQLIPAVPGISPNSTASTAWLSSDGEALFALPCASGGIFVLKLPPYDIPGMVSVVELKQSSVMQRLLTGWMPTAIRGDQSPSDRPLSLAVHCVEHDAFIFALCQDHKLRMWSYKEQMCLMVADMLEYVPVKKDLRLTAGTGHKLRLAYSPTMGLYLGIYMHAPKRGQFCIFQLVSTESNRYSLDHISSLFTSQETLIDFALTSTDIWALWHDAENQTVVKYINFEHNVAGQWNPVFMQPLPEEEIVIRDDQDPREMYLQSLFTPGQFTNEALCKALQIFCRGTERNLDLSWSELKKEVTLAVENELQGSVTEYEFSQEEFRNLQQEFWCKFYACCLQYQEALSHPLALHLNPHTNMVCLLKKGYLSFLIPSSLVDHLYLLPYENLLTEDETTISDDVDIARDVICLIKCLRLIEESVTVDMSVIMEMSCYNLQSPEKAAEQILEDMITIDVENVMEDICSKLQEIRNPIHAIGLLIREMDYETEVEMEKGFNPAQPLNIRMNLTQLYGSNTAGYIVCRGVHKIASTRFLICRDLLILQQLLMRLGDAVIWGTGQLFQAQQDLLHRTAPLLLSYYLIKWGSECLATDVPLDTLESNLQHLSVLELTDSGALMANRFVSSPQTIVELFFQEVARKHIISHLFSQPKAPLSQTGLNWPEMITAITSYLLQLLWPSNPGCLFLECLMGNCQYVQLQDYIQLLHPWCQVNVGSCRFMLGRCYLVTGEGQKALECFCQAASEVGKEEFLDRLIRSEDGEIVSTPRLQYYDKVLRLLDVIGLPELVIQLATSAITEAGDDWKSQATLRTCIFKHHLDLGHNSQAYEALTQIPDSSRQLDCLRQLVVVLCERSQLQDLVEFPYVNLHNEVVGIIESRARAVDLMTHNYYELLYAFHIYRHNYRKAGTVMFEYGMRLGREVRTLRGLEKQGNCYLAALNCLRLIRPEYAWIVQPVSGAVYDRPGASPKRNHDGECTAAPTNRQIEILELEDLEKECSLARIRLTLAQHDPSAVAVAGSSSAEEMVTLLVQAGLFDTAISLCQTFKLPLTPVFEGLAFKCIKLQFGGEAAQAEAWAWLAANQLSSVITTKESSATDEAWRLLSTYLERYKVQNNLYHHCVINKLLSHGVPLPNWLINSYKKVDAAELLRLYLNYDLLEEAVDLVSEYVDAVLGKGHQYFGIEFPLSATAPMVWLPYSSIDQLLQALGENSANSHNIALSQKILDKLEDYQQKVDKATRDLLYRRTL
UniProt Q02930: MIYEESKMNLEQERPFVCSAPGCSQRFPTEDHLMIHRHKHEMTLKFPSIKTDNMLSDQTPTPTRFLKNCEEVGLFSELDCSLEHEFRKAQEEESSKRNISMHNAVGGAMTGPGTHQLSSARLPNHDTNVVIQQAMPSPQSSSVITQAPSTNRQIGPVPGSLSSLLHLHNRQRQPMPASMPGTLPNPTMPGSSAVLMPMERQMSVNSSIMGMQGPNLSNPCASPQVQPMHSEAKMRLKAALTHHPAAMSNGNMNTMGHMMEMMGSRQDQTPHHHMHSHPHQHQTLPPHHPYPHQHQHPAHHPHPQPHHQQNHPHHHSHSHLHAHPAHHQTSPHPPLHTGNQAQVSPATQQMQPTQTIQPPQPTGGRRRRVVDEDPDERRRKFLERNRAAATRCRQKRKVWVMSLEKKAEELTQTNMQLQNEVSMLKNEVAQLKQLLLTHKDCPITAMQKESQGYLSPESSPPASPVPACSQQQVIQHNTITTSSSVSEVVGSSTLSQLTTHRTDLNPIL
UniProt Q13428: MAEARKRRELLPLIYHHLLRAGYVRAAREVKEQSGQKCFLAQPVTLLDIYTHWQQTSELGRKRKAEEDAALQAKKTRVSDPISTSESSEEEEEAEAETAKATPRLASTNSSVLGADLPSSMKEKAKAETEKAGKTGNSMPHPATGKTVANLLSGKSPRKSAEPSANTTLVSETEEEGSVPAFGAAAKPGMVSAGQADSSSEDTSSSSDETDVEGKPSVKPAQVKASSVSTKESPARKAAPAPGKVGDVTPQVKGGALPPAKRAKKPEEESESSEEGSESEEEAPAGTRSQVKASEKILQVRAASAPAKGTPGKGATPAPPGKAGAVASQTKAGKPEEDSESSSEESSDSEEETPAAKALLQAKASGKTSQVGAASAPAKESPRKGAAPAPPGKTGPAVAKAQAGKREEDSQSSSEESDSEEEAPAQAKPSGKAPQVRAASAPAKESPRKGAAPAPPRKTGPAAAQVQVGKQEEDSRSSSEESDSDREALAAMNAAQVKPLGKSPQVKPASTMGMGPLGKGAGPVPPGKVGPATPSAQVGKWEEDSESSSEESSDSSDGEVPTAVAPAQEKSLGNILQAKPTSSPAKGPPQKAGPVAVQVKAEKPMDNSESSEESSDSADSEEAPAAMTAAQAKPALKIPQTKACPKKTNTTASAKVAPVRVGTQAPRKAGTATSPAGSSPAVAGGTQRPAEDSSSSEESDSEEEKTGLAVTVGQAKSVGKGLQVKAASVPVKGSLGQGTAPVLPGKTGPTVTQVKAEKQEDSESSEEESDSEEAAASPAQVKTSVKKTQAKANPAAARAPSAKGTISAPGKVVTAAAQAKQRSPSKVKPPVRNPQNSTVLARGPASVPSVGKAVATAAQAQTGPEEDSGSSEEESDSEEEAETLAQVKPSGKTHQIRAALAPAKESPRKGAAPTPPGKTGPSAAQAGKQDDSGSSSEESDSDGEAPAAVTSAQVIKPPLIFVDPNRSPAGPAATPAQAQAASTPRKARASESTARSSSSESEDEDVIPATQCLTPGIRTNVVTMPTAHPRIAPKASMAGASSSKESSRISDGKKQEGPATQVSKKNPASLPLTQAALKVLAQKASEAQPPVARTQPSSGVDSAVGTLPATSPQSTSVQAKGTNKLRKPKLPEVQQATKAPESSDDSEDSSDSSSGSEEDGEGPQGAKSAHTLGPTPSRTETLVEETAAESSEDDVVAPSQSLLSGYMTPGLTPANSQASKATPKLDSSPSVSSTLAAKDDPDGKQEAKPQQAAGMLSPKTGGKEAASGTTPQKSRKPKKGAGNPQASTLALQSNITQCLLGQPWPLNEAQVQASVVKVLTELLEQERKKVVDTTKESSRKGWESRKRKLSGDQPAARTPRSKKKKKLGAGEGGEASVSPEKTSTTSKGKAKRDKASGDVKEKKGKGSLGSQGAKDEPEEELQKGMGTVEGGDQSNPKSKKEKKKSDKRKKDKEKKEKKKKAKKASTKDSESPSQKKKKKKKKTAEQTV
UniProt Q06587: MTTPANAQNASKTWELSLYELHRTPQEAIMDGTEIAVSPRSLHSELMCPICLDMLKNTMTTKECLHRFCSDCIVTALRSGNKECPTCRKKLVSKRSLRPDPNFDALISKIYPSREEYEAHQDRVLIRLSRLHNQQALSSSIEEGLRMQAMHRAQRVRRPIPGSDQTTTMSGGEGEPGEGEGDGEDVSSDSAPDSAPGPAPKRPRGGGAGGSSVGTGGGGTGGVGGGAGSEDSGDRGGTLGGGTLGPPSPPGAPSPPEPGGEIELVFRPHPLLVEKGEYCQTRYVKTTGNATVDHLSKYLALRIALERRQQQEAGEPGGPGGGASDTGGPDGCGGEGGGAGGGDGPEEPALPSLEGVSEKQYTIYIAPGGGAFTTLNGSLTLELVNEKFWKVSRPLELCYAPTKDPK
UniProt Q13423: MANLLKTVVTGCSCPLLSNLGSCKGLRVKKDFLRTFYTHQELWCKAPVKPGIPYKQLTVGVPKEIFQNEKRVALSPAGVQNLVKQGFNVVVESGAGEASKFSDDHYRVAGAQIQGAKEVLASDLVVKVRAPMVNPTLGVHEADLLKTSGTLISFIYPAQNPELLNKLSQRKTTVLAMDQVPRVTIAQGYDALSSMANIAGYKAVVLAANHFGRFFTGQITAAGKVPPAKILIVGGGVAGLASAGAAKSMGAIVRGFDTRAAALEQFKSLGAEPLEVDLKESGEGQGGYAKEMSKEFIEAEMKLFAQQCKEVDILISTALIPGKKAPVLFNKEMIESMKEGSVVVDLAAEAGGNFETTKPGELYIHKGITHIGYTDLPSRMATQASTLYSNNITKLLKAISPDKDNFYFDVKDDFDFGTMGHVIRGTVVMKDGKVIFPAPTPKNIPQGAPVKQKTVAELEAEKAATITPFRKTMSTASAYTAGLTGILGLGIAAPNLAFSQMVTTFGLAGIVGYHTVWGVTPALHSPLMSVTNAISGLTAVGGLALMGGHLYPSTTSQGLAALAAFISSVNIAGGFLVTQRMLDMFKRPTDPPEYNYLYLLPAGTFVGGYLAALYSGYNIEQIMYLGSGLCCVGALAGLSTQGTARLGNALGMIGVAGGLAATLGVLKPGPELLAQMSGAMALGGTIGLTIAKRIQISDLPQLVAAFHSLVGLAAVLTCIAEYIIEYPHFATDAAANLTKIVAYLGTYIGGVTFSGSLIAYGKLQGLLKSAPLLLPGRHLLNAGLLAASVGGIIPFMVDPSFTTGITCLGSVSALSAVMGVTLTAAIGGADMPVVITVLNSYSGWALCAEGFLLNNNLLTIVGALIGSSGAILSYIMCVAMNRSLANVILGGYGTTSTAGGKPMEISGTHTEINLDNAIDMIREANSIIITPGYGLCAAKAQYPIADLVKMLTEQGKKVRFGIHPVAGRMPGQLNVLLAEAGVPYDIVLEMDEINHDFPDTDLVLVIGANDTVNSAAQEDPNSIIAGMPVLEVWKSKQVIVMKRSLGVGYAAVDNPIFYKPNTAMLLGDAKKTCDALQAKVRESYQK

Compound: COC(=O)/C=C/c1ccccc1 [methyl cinnamate]
Experiment: log2 ratio of iodoacetamide-alkyne labeling of the cysteine site, DMSO over compound (competition); higher = stronger covalent engagement of the cysteine by the compound, active = 1 or more
Details: 500 µM; treatment time 1 h; system: HEK293T cell lysate
Procedure, shortened: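 After 1 h at ambient temperature with vehicle or electrophile (500 µM), HEK293T lysate (2 mg/mL) was labelled for 1 h with iodoacetamide alkyne and clicked to sCIP-TMT reagents. Pooled samples were trypsin-digested overnight at 37 °C, streptavidin-enriched, acid-eluted and analysed by Orbitrap Eclipse LC-MS/MS with FAIMS, then quantified in FragPipe over three replicates with duplicate channels. A cysteine's log2 competition ratio is its mean control-channel over mean compound-channel reporter intensity. Cysteines quantified in only one replicate were not included.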

Row | Target | log2 ratio of iodoacetamide-alkyne labeling
1 | IFIT5 C137 (UniProt Q13325) | inactive: 0.161
2 | NFIA C6 (UniProt Q12857) | inactive: 0.0332
3 | TLE3 C528 (UniProt Q04726) | inactive: 0.155
4 | FKBP4 C396 (UniProt Q02790) | inactive: 0.328
5 | UniProt Q09028_C167 | inactive: 0.324
6 | HNRNPA0 C49 (UniProt Q13151) | inactive: -0.113
7 | MTA1 C512 (UniProt Q13330) | inactive: 0.372
8 | NUP160 C1166 (UniProt Q12769) | inactive: 0.185
9 | UniProt Q02930_C69 | inactive: 0.593
10 | CHAF1A C492 (UniProt Q13111) | inactive: 0.161
11 | UniProt Q09028_C138 | inactive: 0.0833
12 | TCOF1 C1012 (UniProt Q13428) | inactive: 0.229
13 | NOTCH2 C1357 (UniProt Q04721) | inactive: 0.204
14 | PABPC4 C132 (UniProt Q13310) | inactive: 0.0719
15 | RING1 C72 (UniProt Q06587) | inactive: 0.124
16 | NNT C936 (UniProt Q13423) | inactive: -0.0296

Looked up above:
For log2 ratio of iodoacetamide-alkyne labeling, HNRNPA0 C49 (UniProt Q13151) has inactive: -0.113
For log2 ratio of iodoacetamide-alkyne labeling, CHAF1A C492 (UniProt Q13111) has inactive: 0.161
